{"source": "the supplement of paper PMC8728848", "binders": {"B1": {"name": "KCR (Mus musculus), P70194 (protein)", "chain": "MKEAELNRDMARYCTDNQCVSLQPQGLGPKSAALMAPRTLRHVQVILALMVVTVIFSLLALFVVASQPWRPEWNKEPPSLLLRGSNNSGHDNHSQFVRETEMQVAIQRLRDYEENSSSCHKEVQILKYQMDNVSSLVQLLGSHLEDVNADILQTKDVLKESGALALETQALRSSLEVASADIHSLRGDLEKANAMTSQTRGLLKSSTENTSAELHVLGRGLEEAQSEIQALRGSLQSANDLSSQTQGFLQHSMDNISAQIQTVRDGMERAGEKMNSLKKELETLTAQTQKANGHLEQTDAQIQGLKAELKSTSSLNSRIEVVNGQMKDASRELQTLRRDLSDVSALKSNVQMLQSNLQRAKTEMQTLKADLQATKALTAKIQGEQNRLGALQEAVAAQKQEQKTQNQVLQLIAQNWKYFNGNFYYFSRDKKPWREAEKFCTSQGAHLASVTSQEEQAFLVQTTSSGDHWIGLTDQGTEGIWRWVDGTPFNNAQSKGFWGKNQPDNWRHRNGEREDCVHVRQQWNDMACGSSYPWVCKKSTGWSAARVG"}}, "test_in_all_cases": "glycan array binding signal (z-score within array); higher = stronger binding", "settings_in_all_cases": "glycan notation: IUPAC condensed, linker removed", "key": {"[1]": {"target": "Fuc(a1-2)Gal", "method_in_brief": "(§1)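 The Consortium for Functional Glycomics database supplied 3228 glycan arrays, of which those lacking an available protein sequence were dropped. The binding signal, a within-array Z-score, was averaged across arrays of the same protein sequence and across linkers. Negative scores can be read as non-binding.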"}, "[2]": {"target": "Fuc(a1-2)Gal(b1-3)GalNAc", "method_in_brief": "as §1"}, "[3]": {"target": "Fuc(a1-2)Gal(b1-3)GalNAc(b1-3)Gal", "method_in_brief": "as §1"}, "[4]": {"target": "Fuc(a1-2)Gal(b1-3)GalNAc(b1-3)Gal(a1-4)Gal(b1-4)Glc", "method_in_brief": "as §1"}, "[5]": {"target": "Fuc(a1-2)Gal(b1-3)GalNAc(b1-3)Gal(b1-4)Glc", "method_in_brief": "as §1"}, "[6]": {"target": "Fuc(a1-2)Gal(b1-3)GalNAc(b1-4)[Neu5Ac(a2-3)]Gal(b1-4)Glc", "method_in_brief": "as §1"}, "[7]": {"target": "Fuc(a1-2)Gal(b1-3)[Fuc(a1-4)]GlcNAc", "method_in_brief": "as §1"}, "[8]": {"target": "Fuc(a1-2)Gal(b1-4)Glc", "method_in_brief": "as §1"}, "[9]": {"target": "Fuc(a1-2)Gal(b1-4)Glc6S", "method_in_brief": "as §1"}, "[10]": {"target": "Fuc(a1-2)Gal(b1-4)GlcNAc", "method_in_brief": "as §1"}, "[11]": {"target": "Fuc(a1-2)Gal(b1-4)GlcNAc(b1-3)Gal(b1-4)GlcNAc", "method_in_brief": "as §1"}, "[12]": {"target": "Fuc(a1-2)Gal(b1-4)GlcNAc(b1-3)Gal(b1-4)GlcNAc(b1-3)Gal(b1-4)GlcNAc", "method_in_brief": "as §1"}, "[13]": {"target": "Fuc(a1-2)Gal(b1-4)GlcNAc6S", "method_in_brief": "as §1"}, "[14]": {"target": "Fuc(a1-2)Gal(b1-4)[Fuc(a1-3)]GalNAc(b1-3)Gal(b1-4)[Fuc(a1-3)]GlcNAc", "method_in_brief": "as §1"}, "[15]": {"target": "Fuc(a1-2)Gal(b1-4)[Fuc(a1-3)]GalNAc(b1-3)Gal(b1-4)[Fuc(a1-3)]GlcNAc(b1-3)Gal(b1-4)[Fuc(a1-3)]GalNAc", "method_in_brief": "as §1"}, "[16]": {"target": "Fuc(a1-2)Gal(b1-4)[Fuc(a1-3)]GlcNAc", "method_in_brief": "as §1"}, "[17]": {"target": "Fuc(a1-2)Gal6S(b1-4)Glc", "method_in_brief": "as §1"}, "[18]": {"target": "Fuc(a1-2)Gal6S(b1-4)Glc6S", "method_in_brief": "as §1"}, "[19]": {"target": "Fuc(a1-2)Gal6S(b1-4)GlcNAc", "method_in_brief": "as §1"}, "[20]": {"target": "Fuc(a1-2)GlcNAc", "method_in_brief": "as §1"}, "[21]": {"target": "Fuc(a1-2)[Gal(a1-3)]Gal", "method_in_brief": "as §1"}, "[22]": {"target": "Fuc(a1-2)[Gal(a1-3)]Gal(b1-3)GlcNAc", "method_in_brief": "as §1"}, "[23]": {"target": "Fuc(a1-2)[Gal(a1-3)]Gal(b1-4)Glc", "method_in_brief": "as §1"}, "[24]": {"target": "Fuc(a1-2)[Gal(a1-3)]Gal(b1-4)GlcNAc", "method_in_brief": "as §1"}, "[25]": {"target": "Fuc(a1-2)[Gal(a1-3)]Gal(b1-4)[Fuc(a1-3)]GlcNAc", "method_in_brief": "as §1"}, "[26]": {"target": "Fuc(a1-2)[Gal(a1-4)]Gal(b1-4)GalNAc", "method_in_brief": "as §1"}, "[27]": {"target": "Fuc(a1-2)[GalNAc(a1-3)]Gal", "method_in_brief": "as §1"}, "[28]": {"target": "Fuc(a1-2)[GalNAc(a1-3)]Gal(b1-3)GlcNAc", "method_in_brief": "as §1"}, "[29]": {"target": "Fuc(a1-2)[GalNAc(a1-3)]Gal(b1-4)Glc", "method_in_brief": "as §1"}, "[30]": {"target": "Fuc(a1-2)[GalNAc(a1-3)]Gal(b1-4)GlcNAc", "method_in_brief": "as §1"}, "[31]": {"target": "Fuc(a1-2)[GalNAc(a1-3)]Gal(b1-4)[Fuc(a1-3)]GlcNAc", "method_in_brief": "as §1"}, "[32]": {"target": "Fuc(a1-2)[GalNAc(a1-4)]Gal(b1-4)GlcNAc", "method_in_brief": "as §1"}, "[33]": {"target": "Fuc(a1-3)GlcNAc", "method_in_brief": "as §1"}, "[34]": {"target": "Fuc(a1-3)[Gal(b1-4)]Glc6S", "method_in_brief": "as §1"}, "[35]": {"target": "Fuc(a1-3)[Gal(b1-4)]GlcNAc", "method_in_brief": "as §1"}, "[36]": {"target": "Fuc(a1-3)[Gal(b1-4)]GlcNAc(b1-3)Gal(b1-3)[Fuc(a1-4)]GlcNAc", "method_in_brief": "as §1"}, "[37]": {"target": "Fuc(a1-3)[Gal(b1-4)]GlcNAc(b1-4)Gal(b1-4)[Fuc(a1-3)]GlcNAc", "method_in_brief": "as §1"}, "[38]": {"target": "Fuc(a1-3)[Gal(b1-4)]GlcNAc(b1-4)Gal(b1-4)[Fuc(a1-3)]GlcNAc(b1-4)Gal(b1-4)[Fuc(a1-3)]GlcNAc", "method_in_brief": "as §1"}, "[39]": {"target": "Fuc(a1-3)[Gal(b1-4)]GlcNAc6S", "method_in_brief": "as §1"}, "[40]": {"target": "Fuc(a1-3)[Gal3S(b1-4)]Glc", "method_in_brief": "as §1"}, "[41]": {"target": "Fuc(a1-3)[Gal3S(b1-4)]Glc6S", "method_in_brief": "as §1"}, "[42]": {"target": "Fuc(a1-3)[Gal3S(b1-4)]GlcNAc", "method_in_brief": "as §1"}, "[43]": {"target": "Fuc(a1-3)[Gal3S(b1-4)]GlcNAc6S", "method_in_brief": "as §1"}, "[44]": {"target": "Fuc(a1-3)[GalNAc(b1-4)]Gal(b1-4)GlcNAc", "method_in_brief": "as §1"}, "[45]": {"target": "Fuc(a1-4)GlcNAc", "method_in_brief": "as §1"}}, "note": "Some of the results follow."}
{"binder": "B1", "values": [{"measurement": "glycan array binding signal (z-score)", "setting": "[1]", "result": 0.24}, {"measurement": "glycan array binding signal (z-score)", "setting": "[2]", "result": -0.72}, {"measurement": "glycan array binding signal (z-score)", "setting": "[3]", "result": -0.278}, {"measurement": "glycan array binding signal (z-score)", "setting": "[4]", "result": -0.651}, {"measurement": "glycan array binding signal (z-score)", "setting": "[5]", "result": -0.816}, {"measurement": "glycan array binding signal (z-score)", "setting": "[6]", "result": -0.426}, {"measurement": "glycan array binding signal (z-score)", "setting": "[7]", "result": -0.875}, {"measurement": "glycan array binding signal (z-score)", "setting": "[8]", "result": -0.826}, {"measurement": "glycan array binding signal (z-score)", "setting": "[9]", "result": 0.282}, {"measurement": "glycan array binding signal (z-score)", "setting": "[10]", "result": -0.794}, {"measurement": "glycan array binding signal (z-score)", "setting": "[11]", "result": -0.635}, {"measurement": "glycan array binding signal (z-score)", "setting": "[12]", "result": -0.548}, {"measurement": "glycan array binding signal (z-score)", "setting": "[13]", "result": -0.001}, {"measurement": "glycan array binding signal (z-score)", "setting": "[14]", "result": -0.211}, {"measurement": "glycan array binding signal (z-score)", "setting": "[15]", "result": -0.558}, {"measurement": "glycan array binding signal (z-score)", "setting": "[16]", "result": -0.493}, {"measurement": "glycan array binding signal (z-score)", "setting": "[17]", "result": -0.232}, {"measurement": "glycan array binding signal (z-score)", "setting": "[18]", "result": 1.85}, {"measurement": "glycan array binding signal (z-score)", "setting": "[19]", "result": 0.367}, {"measurement": "glycan array binding signal (z-score)", "setting": "[20]", "result": -0.506}, {"measurement": "glycan array binding signal (z-score)", "setting": "[21]", "result": -0.369}, {"measurement": "glycan array binding signal (z-score)", "setting": "[22]", "result": -0.474}, {"measurement": "glycan array binding signal (z-score)", "setting": "[23]", "result": -0.262}, {"measurement": "glycan array binding signal (z-score)", "setting": "[24]", "result": -0.609}, {"measurement": "glycan array binding signal (z-score)", "setting": "[25]", "result": -0.295}, {"measurement": "glycan array binding signal (z-score)", "setting": "[26]", "result": -0.36}, {"measurement": "glycan array binding signal (z-score)", "setting": "[27]", "result": 1.28}, {"measurement": "glycan array binding signal (z-score)", "setting": "[28]", "result": -0.414}, {"measurement": "glycan array binding signal (z-score)", "setting": "[29]", "result": -0.481}, {"measurement": "glycan array binding signal (z-score)", "setting": "[30]", "result": -0.663}, {"measurement": "glycan array binding signal (z-score)", "setting": "[31]", "result": -0.495}, {"measurement": "glycan array binding signal (z-score)", "setting": "[32]", "result": -0.077}, {"measurement": "glycan array binding signal (z-score)", "setting": "[33]", "result": -0.589}, {"measurement": "glycan array binding signal (z-score)", "setting": "[34]", "result": 0.736}, {"measurement": "glycan array binding signal (z-score)", "setting": "[35]", "result": 1.71}, {"measurement": "glycan array binding signal (z-score)", "setting": "[36]", "result": 0.416}, {"measurement": "glycan array binding signal (z-score)", "setting": "[37]", "result": 2.14}, {"measurement": "glycan array binding signal (z-score)", "setting": "[38]", "result": 4.39}, {"measurement": "glycan array binding signal (z-score)", "setting": "[39]", "result": 3.94}, {"measurement": "glycan array binding signal (z-score)", "setting": "[40]", "result": -0.41}, {"measurement": "glycan array binding signal (z-score)", "setting": "[41]", "result": 0.437}, {"measurement": "glycan array binding signal (z-score)", "setting": "[42]", "result": -0.102}, {"measurement": "glycan array binding signal (z-score)", "setting": "[43]", "result": 0.896}, {"measurement": "glycan array binding signal (z-score)", "setting": "[44]", "result": 3.06}, {"measurement": "glycan array binding signal (z-score)", "setting": "[45]", "result": -0.434}]}
